Measurements taken from article PMC12808826.
No constants are given. Whether binding was seen depends on the method and setting. In cells and extracts the contact can be indirect. Some entries that bind do so weakly or less than the wild type. For some assays here: Where a sequence is shown, tags or fusion partners need not be part of it.

By UniProt entry, the sequences of proteins in these tests, tags left out.
UniProt P46938: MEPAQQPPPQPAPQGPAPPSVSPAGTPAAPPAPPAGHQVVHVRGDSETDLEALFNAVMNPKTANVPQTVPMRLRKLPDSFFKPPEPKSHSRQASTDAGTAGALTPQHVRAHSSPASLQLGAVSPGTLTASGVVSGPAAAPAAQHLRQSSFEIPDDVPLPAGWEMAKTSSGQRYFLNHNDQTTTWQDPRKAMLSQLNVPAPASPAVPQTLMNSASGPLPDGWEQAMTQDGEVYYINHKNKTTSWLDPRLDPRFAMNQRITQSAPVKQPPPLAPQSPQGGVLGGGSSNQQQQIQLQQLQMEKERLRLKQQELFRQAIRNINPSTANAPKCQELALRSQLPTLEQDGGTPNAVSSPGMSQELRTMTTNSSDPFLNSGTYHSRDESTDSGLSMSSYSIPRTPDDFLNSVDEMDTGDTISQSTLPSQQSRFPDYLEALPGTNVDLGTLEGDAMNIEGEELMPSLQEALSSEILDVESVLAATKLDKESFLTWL
UniProt P30051: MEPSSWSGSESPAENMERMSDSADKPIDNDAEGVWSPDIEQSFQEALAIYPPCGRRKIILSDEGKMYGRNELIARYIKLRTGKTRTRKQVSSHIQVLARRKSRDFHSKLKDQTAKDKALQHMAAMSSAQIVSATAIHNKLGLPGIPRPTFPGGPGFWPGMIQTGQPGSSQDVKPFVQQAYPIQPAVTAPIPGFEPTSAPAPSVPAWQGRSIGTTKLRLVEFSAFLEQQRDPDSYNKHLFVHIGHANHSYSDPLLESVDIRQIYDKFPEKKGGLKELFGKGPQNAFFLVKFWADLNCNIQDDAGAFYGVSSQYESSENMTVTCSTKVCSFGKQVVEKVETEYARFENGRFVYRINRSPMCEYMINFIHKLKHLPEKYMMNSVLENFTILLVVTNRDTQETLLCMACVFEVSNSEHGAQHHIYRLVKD

Columns and labels:
[1] = target: YAP1 (Yes-associated protein 1), endogenous in VSMCs (mouse (endogenous in primary mouse aortic VSMCs)) (UniProt P46938); assay: co-IP; VSMCs transfected with siRNA of Zfp36 and Gbp2; endogenous proteins; which protein was precipitated is not told
[2] = target: HA-TEAD1 (TEA domain transcription factor 1) (UniProt P30051); assay: co-IP; HEK-293T cells transfected with Flag-GBP2 plasmid and HA-TEAD1 plasmid; which protein was precipitated is not told

| binding [1] | binding [2] | Molecule |
| --- | --- | --- |
| binds |  | TEAD1 (TEA domain transcription factor 1), endogenous in VSMCs (from UniProt P30051 1-426) |
|  | binds | Flag-GBP2 (guanylate binding protein 2) (protein, UniProt Q9Z0E6 1-589) MASEIHMSEPMCLIENTEAQLVINQEALRILSAITQPVVVVAIVGLYRTGKSYLMNKLAGKRTGFSLGSTVQSHTKGIWMWCVPHPKKAGQTLVLLDTEGLEDVEKGDNQNDCWIFALAVLLSSTFIYNSIGTINQQAMDQLHYVTELTDLIKSKSSPDQSGVDDSANFVGFFPTFVWTLRDFSLELEVNGKPVTSDEYLEHSLTLKKGADKKTKSFNEPRLCIRKFFPKRKCFIFDRPAQRKQLSKLETLREEELCGEFVEQVAEFTSYILSYSSVKTLCGGIIVNGPRLKSLVQTYVGAISNGSLPCMESAVLTLAQIENSAAVQKAITHYEEQMNQKIQMPTETLQELLDLHRPIESEAIEVFLKNSFKDVDQKFQTELGNLLVAKRDAFIKKNMDVSSARCSDLLEDIFGPLEEEVKLGTFSKPGGYYLFLQMRQELEKKYNQAPGKGLQAEAMLKNYFDSKADVVETLLQTDQSLTEAAKEVEEERTKAEAAEAANRELEKKQKEFELMMQQKEKSYQEHVKKLTEKMKDEQKQLLAEQENIIAAKLREQEKFLKEGFENESKKLIREIDTLKQNKSSGKCTIL |
